Our source for the binding values is publication PMC8174033.

Results are given in words; binding and its absence hold for the method and conditions named. Binding seen in cells or lysates may run through a third protein. Binding can be weak; no strength is given. Sequences can lack the tags named with a protein.

The assay concerns the target T1, fasciculation and elongation protein zeta 1 (FEZ1), full-length, EmGFP-tagged (UniProt Q99689).
T1 sequence: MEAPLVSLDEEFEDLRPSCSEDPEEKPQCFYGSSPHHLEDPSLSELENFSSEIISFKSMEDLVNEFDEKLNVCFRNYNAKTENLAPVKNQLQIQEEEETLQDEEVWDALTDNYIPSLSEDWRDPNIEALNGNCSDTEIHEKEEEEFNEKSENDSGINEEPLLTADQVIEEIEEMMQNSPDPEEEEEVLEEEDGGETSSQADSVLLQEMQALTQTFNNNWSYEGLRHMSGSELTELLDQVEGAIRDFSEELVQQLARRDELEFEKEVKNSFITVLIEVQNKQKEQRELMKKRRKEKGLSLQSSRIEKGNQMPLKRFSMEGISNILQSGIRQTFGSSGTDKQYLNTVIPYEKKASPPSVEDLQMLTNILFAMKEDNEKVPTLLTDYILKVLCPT
Nature of the assay: co-IP; HEK293 cells co-expressing the two tagged proteins, 24 h after transfection; lysis and washes in 50 mM HEPES, 150 mM NaCl, 1 mM EDTA, 1% Triton X-100, pH 7.2; GFP-Trap agarose beads 1-3 h at 4°C; immunoblot. Background: In western blotting, separated proteins are transferred to a membrane and probed.

As to Munc18, FLAG-tagged, the binding entry is listed as “binds”.
